Measured values from the supplement of paper PMC11150407.
The whole screen tested about 3,000 compounds, of which about 45 (2%) showed an effect of 50% or more. The list shows a part of the results.

These molecules were tested on MOLM1 and UCSD/AML1 (averaged) (assay: cell viability relative to DMSO control (POC); higher = less growth inhibition). Details: 1 µM; 72 h.
Experimental: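 Primary viability screen in the 3q26 EVI1-high AML cell lines MOLM1 and UCSD/AML1, compounds at 1 uM for 72 h. ATP CellTiter-Glo read-out given as percent viable over DMSO control (POC), averaged over duplicates. This mapping covers the TimTec NDL-3000 natural derivative library, whose compounds are identified by TimTec catalogue codes (ST...).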

Row | SMILES | cell viability [%]
1 | Cc1[nH]c2ccc(Br)cc2c1CCNC(=O)c1cccs1 | 100
2 | O=C(Cc1n[nH]c(=O)[nH]c1=O)N/N=C/c1ccccc1[N+](=O)[O-] | 98.9
3 | O=C(Cn1c(=O)cc(C(=O)N2CCCC2)c2ccccc21)Nc1cccc(C(F)(F)F)c1 | 95.3
4 | COc1cccc(-c2nc(CSc3nc4c(=O)[nH]cnc4n3C)c(C)o2)c1OC | 123
5 | O=C(/C=C/c1ccc(-n2c(=O)c3cc4c(=O)n(-c5ccc(/C=C/C(=O)c6ccccc6)cc5)c(=O)c4c(C(=O)c4ccc(Cl)cc4)c3c2=O)cc1)c1ccccc1 | 104
6 | CCOC(=O)C1=C(N)Oc2c(oc(CO)cc2=O)C1c1cc([N+](=O)[O-])ccc1Cl (stereo not drawn) | 87.1
7 | Cc1cc2c(C(C)C)c(O)c(O)c(/C=N/NC(=O)NC3CCCCC3)c2c(O)c1-c1c(C)cc2c(C(C)C)c(O)c(O)c(/C=N/NC(=O)NC3CCCCC3)c2c1O | 103
8 | COc1cc(C2C(C#N)=C(N)SC(N)=C2C#N)cc([N+](=O)[O-])c1O | 93.2
9 | COC(=O)/C=C/c1ccc(OC)c(OC)c1OC | 98.3
10 | CCN(CC)c1ccc(C2C3CCCCC3(O)CCN2C(=O)/C=C/c2ccc(OC)cc2)cc1 (stereo not drawn) | 85.6
11 | NC(=O)CC1CCCCN1 (stereo not drawn) | 126
12 | O=C(Oc1ccc2c(=O)c(Cl)coc2c1)c1cccnc1 | 105
13 | COc1ccc(C(=O)CCNc2cc(OC)c(OC)c(OC)c2)cc1OC | 107
14 | Cc1cc2c(C(C)C)c(O)c(O)c(C=NCCN3CCN(C)CC3)c2c(O)c1-c1c(C)cc2c(C(C)C)c(O)c(O)c(C=NCCN3CCN(C)CC3)c2c1O | 98.8
15 | O=c1cc(C(Cl)(Cl)Cl)oc2ccc(Cl)cc12 | 7.16
16 | Cc1ccc2oc(-c3ccc(Cl)cc3)cc(=O)c2c1 | 85.9
17 | COc1cc(O)c(C(=O)Cc2ccccc2Cl)c(OC)c1 | 103
18 | CC(=O)CCCCC(=O)CCCCC(=O)O | 115
19 | CC(=O)NC(C)C(=O)O (stereo not drawn) | 102
20 | COc1ccc(C2CC(=O)c3cc(Cl)ccc3O2)cc1OC (stereo not drawn) | 84.9
21 | CC(=O)NC(Cc1c[nH]c2ccccc12)C(=O)NCCOc1ccccc1-c1ccccc1 (stereo not drawn) | 100
22 | COC1OC(COC(c2ccccc2)(c2ccccc2)c2ccccc2)C(O)C(O)C1O (stereo not drawn) | 97.1
23 | COc1ccc(S(=O)(=O)Nc2ccc(C(=O)NCC(=O)O)cc2)cc1-n1cnnn1 | 91.6
24 | Brc1cc(Br)c2c(c1)C=C1CCCCCC1(N1CCOCC1)O2 (stereo not drawn) | 117

Row | SMILES | cell viability [%]
25 | Cc1cc2c(C(C)C)c(O)c(O)c(C=NC(C)CCc3ccco3)c2c(O)c1-c1c(C)cc2c(C(C)C)c(O)c(O)c(C=NC(C)CCc3ccco3)c2c1O (stereo not drawn) | 96.3
26 | CC(=O)Oc1ccc(/C=C/C(=O)OCC2OC(Oc3cc(OC(C)=O)c4c(c3)O[C@H](c3ccc(OC(C)=O)cc3)CC4=O)C(OC(C)=O)C(OC(C)=O)C2OC(C)=O)cc1 (stereo partly drawn) | 89.5
27 | COc1cc(/C=N/NC(=O)C(O)(c2cccc(C)c2)c2cccc(C)c2)cc(OC)c1OC | 91.5
28 | O=C(c1ccccc1)N1CCN(CC(O)Cn2c3ccccc3c3ccccc32)CC1 (stereo not drawn) | 99.4
29 | O=C(c1cc2nc(-c3ccccc3)cc(C(F)(F)F)n2n1)N1CCc2ccccc2C1 | 95.1
30 | COc1ccc2c(c1)c(CC(=O)NC13CC4CC(CC(C4)C1)C3)c(C)n2C(=O)c1ccc(Cl)cc1 | 77
31 | Cc1cc2c(c(O)c1-c1c(C)cc3c(c1O)/C(=C/Nc1ccc(-c4ccc(N)cc4)cc1)C(=O)C(O)=C3C(C)C)/C(=C/Nc1ccc(-c3ccc(N)cc3)cc1)C(=O)C(O)=C2C(C)C | 66.4
32 | COc1ccc(/C=C/C(=O)Nc2cccc3ccccc23)cc1OC | 97.8
33 | COc1cc(C2C3CCCCC3(O)CCN2CC(=O)NCc2ccco2)cc(OC)c1OC (stereo not drawn) | 99.5
34 | CCOc1cccc(C2Nc3ccccc3NC3=C2C(=O)CC(C)(C)C3)c1 (stereo not drawn) | 86.3
35 | O=C(NNC1OC(CO)C(O)C(O)C1O)c1cccnc1 (stereo not drawn) | 98.5
36 | Cc1[nH]c2ccccc2c1CCNC(=O)c1c(F)cccc1F | 97.4
37 | O=C(O)C1Nc2c(I)cccc2C2C=CCC12 (stereo not drawn) | 93.1
38 | COc1cc(C(=O)Nc2ccc(C(F)(F)F)cc2)cc(OC)c1OC | 93.8
39 | COc1cc(C2C(C#N)=C(N)Oc3cc(N)ccc32)cc(OC)c1OC (stereo not drawn) | 13.5
40 | COc1cc(C(=O)CCNc2ccc(C)c(Cl)c2)cc(OC)c1OC | 97.9
41 | CCOC(=O)C(Cc1c[nH]c2ccccc12)NC(=O)C12CC3CC(CC(C3)C1)C2 (stereo not drawn) | 97
42 | COc1ccc2c(c1)c(CC(=O)NCCSc1ccccc1)c(C)n2C(=O)c1ccc(Cl)cc1 | 98.5
43 | O=c1cc(-c2cccc(O)c2)oc2cc(O)c(O)cc12 | 101
44 | CCOC(=O)/C=C/C(=O)Nc1ccccc1-c1ccccc1NC(=O)/C=C/C(=O)OCC | 60.3
45 | Cn1c(=O)c2c(ncn2CC(=O)NCc2ccc(S(N)(=O)=O)cc2)n(C)c1=O | 95.2
46 | Cc1ccc(-n2c(SCC(=O)Nc3cccc(C(F)(F)F)c3)nc3c(=O)[nH]cnc32)cc1 | 112
47 | Cc1ccc(-n2c(SCC(=O)Nc3ccc(Cl)cc3)nc3c(=O)[nH]cnc32)cc1 | 97.1
48 | CCOc1ccc2oc(=O)cc(CN3CCN(CC(=O)N4CCc5ccccc54)CC3)c2c1 | 90

Structural class: the entries above with bromine
Row | SMILES | cell viability [%]
1 | Cc1[nH]c2ccc(Br)cc2c1CCNC(=O)c1cccs1 | 100
24 | Brc1cc(Br)c2c(c1)C=C1CCCCCC1(N1CCOCC1)O2 (stereo not drawn) | 117
